Data from patent publication US20260109725A1, “MACROLIDE SENOLYTIC COMPOUNDS” (LUNELLA BIOTECH, INC., priority 2022, published 2026).
At least one compound was matched to its structure with a doubt left.

Test system: microorganism
Assay: antibiotic activity screen, in vitro broth microdilution assay (overall statement)
Format: cell-based
Settings: vs azithromycin and erythromycin / reference compounds
Description: This is advantageous because use of the compounds of the present approach as therapeutic agents will have less of an impact on the development of antibiotic resistance. For example, embodiments of the present approach were screened for antibiotic activity, using the in vitro broth microdilution assay. […] The assay conditions, described by the Clinical and Laboratory Standards Institute were used for preparation of the inoculum, growth medium, and end point reading. Test substance was dissolved in 100% DMSO, suspended completely by vortexing, diluted by 2-fold serial titrations in the same vehicle, for a total of 11 test concentrations. A 4 μL aliquot of each dilution was added to 196 μL of broth medium seeded with the organism suspension in wells of a 96 well plate (bacterial count: 2-8×10(5) colony forming units/mL final). The final volume was 200 μL in each well and the final DMSO concentration was 2 percent. Test concentrations were 0.1 to 100 μM. Following incubation, the test plates were visually examined and wells were scored for growth or complete growth inhibition to define the minimum inhibitory concentration. Each test substance was evaluated with replicates. Vehicle controls and an active reference agent were used as blank and positive controls. Note that MRSA represents methicillin-resistant Staphylococcus aureus, and VRE represents vancomycin resistant Enterococcus.

## CC[C@H]1OC(=O)[C@H](C)[C@@H](O[C@@H]2C[C@@](C)(OC)[C@@H](O)[C@H](C)O2)[C@H](C)[C@@H](O[C@@H]2O[C@H](C)C[C@H](N(C)C)[C@H]2OC(=O)OCc2ccc(O[C@@H]3O[C@H](CO)[C@H](O)[C@H](O)[C@H]3O)c([N+](=O)[O-])c2)[C@](C)(O)C[C@@H](C)CN(C)[C@H](C)[C@@H](O)[C@]1(C)O [Compound [II], [(2S,3R,4S,6R)-4-(dimethylamino)-2-[[(2R,3S,4R,5R,8R,10R,11R,12S,13S,14R)-2-ethyl-3,4,10-trihydroxy-13-[(2S,4R,5S,6S)-5-hydroxy-4-methoxy-4,6-dimethyl-tetrahydropyran-2-yl]oxy-3,5,6,8,10,12,14-heptamethyl-15-oxo-1-oxa-6-azacyclopentadec-11-yl]oxy]-6-methyl-tetrahydropyran-3-yl][3-nitro-4-[(2S,3R,4S,5R,6R)-3,4,5-trihydroxy-6-(hydroxymethyl)tetrahydropyran-2-yl]oxy-phenyl]methyl carbonate]
  antibiotic activity compared to macrolide antibiotics: less antibiotic activity
